For at least one compound, name, drawing or mass did not settle the structure.
Target: T1, active MALT1 (Homo sapiens, UniProt Q9UDY8)
T1 construct: endogenous in cells; host or cells: Jurkat T cells, primary human PBMCs and T cells, DLBCL cell lines (HBL1, TMD8, OCI-Ly3, OCI-Ly10, U2932, RIVA, BJAB, Su-DHL-4, Su-DHL-6)
T1 sequence (Q9UDY8 1-824): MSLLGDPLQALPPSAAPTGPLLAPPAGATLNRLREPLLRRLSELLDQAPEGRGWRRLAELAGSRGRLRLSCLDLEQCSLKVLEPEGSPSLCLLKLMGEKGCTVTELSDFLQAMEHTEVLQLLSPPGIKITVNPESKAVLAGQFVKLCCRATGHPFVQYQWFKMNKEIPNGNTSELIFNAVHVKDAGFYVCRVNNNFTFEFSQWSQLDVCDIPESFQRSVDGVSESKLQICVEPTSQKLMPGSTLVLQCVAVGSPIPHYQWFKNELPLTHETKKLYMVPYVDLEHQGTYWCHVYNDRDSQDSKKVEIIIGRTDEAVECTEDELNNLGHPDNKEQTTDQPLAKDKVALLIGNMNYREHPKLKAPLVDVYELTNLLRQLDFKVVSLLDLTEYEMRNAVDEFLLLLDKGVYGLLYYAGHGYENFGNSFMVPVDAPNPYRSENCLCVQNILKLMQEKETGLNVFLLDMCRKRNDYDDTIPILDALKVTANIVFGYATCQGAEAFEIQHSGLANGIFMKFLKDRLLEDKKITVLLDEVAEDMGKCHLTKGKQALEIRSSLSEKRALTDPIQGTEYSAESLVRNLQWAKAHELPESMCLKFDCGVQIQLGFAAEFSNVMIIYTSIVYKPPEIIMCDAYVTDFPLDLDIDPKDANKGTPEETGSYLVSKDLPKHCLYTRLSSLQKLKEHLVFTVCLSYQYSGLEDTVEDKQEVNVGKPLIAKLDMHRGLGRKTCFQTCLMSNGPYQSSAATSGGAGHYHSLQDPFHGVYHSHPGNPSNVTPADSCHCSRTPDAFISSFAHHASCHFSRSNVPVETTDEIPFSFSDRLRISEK
Test: ELISA-based assay (MALT1 ELASA) on streptavidin-coated plates with MALT1 antibody detection
Format: cell-based
Settings: 0.3-10 nM for 18 h
Experimental: Jurkat T cells were cultured in standard RPMI medium containing 10% FCS, 100 U/ml Penicillin/Streptomycin and 2 mM Glutamin. DNA transfection of 6 μg DNA in 8×10^6 Jurkat T cells was performed by electroporation in a GenePulser Xcell (BioRad) with a 220 Volt pulse. For siRNA experiments, Jurkat T cells were transfected with 100 nM siRNA and Atufect transfection reagent (Silence Therapeutics, Berlin). Jurkat T cells were stimulated either with 200 ng/ml PMA (phorbol 12-myristate 13-acetate) and 300 ng/ml Ionomycin (both Calbiochem) or CD3/CD28 antibody co-ligation (human CD3: 1 μg/ml; human CD28: 4 μg/ml; mouse IgG1: 2 μg/ml; mouse IgG2a: 2 μg/ml; BD Biosciences). DLBCL cell lines (HBL1, TMD8, OCI-Ly3, U2932, RIVA, BJAB, Su-DHL-4 and Su-DHL-6) were cultured in standard RPMI medium containing 20% FCS, 100 U/ml Penicillin/Streptomycin and 2 mM Glutamin. […]
Untreated DLBCL (1×10^7), primary T cells (0.25×10^7) or Jurkat T cells (0.2-1×10^7) (stimulated or not) were lysed in 300 μl co-IP buffer without protease inhibitors, centrifuged, incubated with probe 7 (concentration as depicted) for 1 h at RT, then transferred to streptavidin-coated plates (96 well, clear) and incubated o/n at 4° C. […] was determined after TMB substrate incubation in a photometer (Bio-Tek).

C=CC(=O)N1CCC[C@@H](n2nc(-c3ccc(Oc4ccccc4)cc3)c3c(N)ncnc32)C1 [Ibrutinib]
effect of single treatment on MALT1 activity in CD79 mutant cells (HBL1, OCI-Ly10 and TMD8 cells): reduced MALT1 activity in a dose dependent manner
effect of single treatment on MALT1 activity in CARMA1 mutant cells (OCI-Ly3 cells): not affected

Reference: US10502741B2, “Means and methods for detecting activated MALT1” (Helmholtz Zentrum München Deutsches Forschungszentrum für …, priority 2014, dated 2019)
